Laboratory results as given in paper PMC12683725.
These are yes or no findings as the source states them, for the method shown. Binding seen in cells or lysates may run through a third protein. Some entries that bind do so weakly or less than the wild type.

Amino acid sequences for entries named in this document (tags omitted).
UniProt Q9Y572: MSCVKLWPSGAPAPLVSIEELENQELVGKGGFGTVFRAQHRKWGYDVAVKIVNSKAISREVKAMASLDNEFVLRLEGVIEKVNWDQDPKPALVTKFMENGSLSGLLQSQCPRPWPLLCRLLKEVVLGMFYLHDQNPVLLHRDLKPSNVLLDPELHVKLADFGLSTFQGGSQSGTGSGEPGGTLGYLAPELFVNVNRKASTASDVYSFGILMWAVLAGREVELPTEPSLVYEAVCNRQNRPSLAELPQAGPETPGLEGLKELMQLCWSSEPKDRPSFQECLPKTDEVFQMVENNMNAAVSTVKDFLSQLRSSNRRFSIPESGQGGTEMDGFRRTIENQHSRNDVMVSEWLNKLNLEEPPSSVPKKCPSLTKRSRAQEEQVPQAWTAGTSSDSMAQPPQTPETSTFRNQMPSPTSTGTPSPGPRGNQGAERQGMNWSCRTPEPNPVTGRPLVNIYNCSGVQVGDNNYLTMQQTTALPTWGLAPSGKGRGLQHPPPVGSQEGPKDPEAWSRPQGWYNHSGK

What was measured:
[1] = target: receptor-interacting protein kinase 3 (human (endogenous in HK-2)) (UniProt Q9Y572); assay: co-IP; lysates of HK-2 cells treated with LPS for 24 h (Pierce IP Lysis Buffer); immunoprecipitation with anti-RIP3 or anti-Nrf2 antibody or control IgG at 4 °C overnight on Dynabeads Protein G; immunoblot for Nrf2 and RIP3
[2] = target: receptor-interacting protein kinase 3 (human (endogenous in HK-2)) (UniProt Q9Y572); assay: co-IP; lysates of control HK-2 cells (no LPS); immunoprecipitation with anti-RIP3 or anti-Nrf2 antibody on Dynabeads Protein G, 4 °C overnight; immunoblot for Nrf2 and RIP3

B1: nuclear factor erythroid 2-related factor 2 (protein, UniProt Q16236 1-605)
chain: MMDLELPPPGLPSQQDMDLIDILWRQDIDLGVSREVFDFSQRRKEYELEKQKKLEKERQEQLQKEQEKAFFAQLQLDEETGEFLPIQPAQHIQSETSGSANYSQVAHIPKSDALYFDDCMQLLAQTFPFVDDNEVSSATFQSLVPDIPGHIESPVFIATNQAQSPETSVAQVAPVDLDGMQQDIEQVWEELLSIPELQCLNIENDKLVETTMVPSPEAKLTEVDNYHFYSSIPSMEKEVGNCSPHFLNAFEDSFSSILSTEDPNQLTVNSLNSDATVNTDFGDEFYSAFIAEPSISNSMPSPATLSHSLSELLNGPIDVSDLSLCKAFNQNHPESTAEFNDSDSGISLNTSPSVASPEHSVESSSYGDTLLGLSDSEVEELDSAPGSVKQNGPKTPVHSSGDMVQPLSPSQGQSTHVHDAQCENTPEKELPVSPGHRKTPFTKDKHSSRLEAHLTRDELRAKALHIPFPVEKIINLPVVDFNEMMSKEQFNEAQLALIRDIRRRGKNKVAAQNCRKRKLENIVELEQDLDHLKDEKEKLLKEKGENDKSLHLLKKQLSTLYLEVFSMLRDEDGKPYSPSEYSLQQTRDGNVFLVPKSKKPDVKKN
Q: With B1 as the binder, how does the binding [1] read?
A: binds

Q: What about the binding [2] of the same binder?
A: no binding (condition: control HK-2 cells without LPS)
